Laboratory results taken from patent US20130039923A1 (Novo Nordisk, published 2013).
These are yes or no findings as the source states them, for the method shown. Some entries that bind do so weakly or less than the wild type.

T1: Peptide no. 40 (Figure 8A)
T1 sequence (peptide): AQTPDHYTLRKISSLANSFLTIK

B1: human anti-hIL20 monoclonal antibody 15D2 (antibody, V domains shown)
VH: QVQLVQSGAEVKRPGASVKVSCKASGYTFTNDIIHWVRQAPGQRLEWMGWINAGYGNTQYSQNFQDRVSITRDTSASTAYMELISLRSEDTAVYYCAREPLWFGESSPHDYYGMDVWGQGTTVTVSS
VL: AIQLTQSPSSLSASVGDRVTITCRASQGISSALAWYQQKPGKAPKLLIYDASSLESGVPSRFSGSGSGTDFTLTISSLQPEDFATYYCQQFNSYPLTFGGGTKVEIKR
notes: also called 15D2-wt; 15D2 wild-type
B2: human anti-hIL20 monoclonal antibody 5B7 (antibody, human IgG4, V domains shown)
VH: QVQLVQSGAEVKRPGASVKVSCKASGYTFSSHIMHWVRQAPGQRLEWMGWINAGYGNTKYSQNFQDRVTITRDTSASTAYMELISLRSEDTAVYYCAREPLWFGELSPHDYYGMDVWGQGTTVTVSS
VL: AIQLTQSPSSLSASVGDRVTITCRASQGISSALAWYQQKPGKAPKLLIYDASSLESGVPSRFSGSGSGTDFTLTISSLQPEDFATYYCQQFNSYPLTFGGGTKVEIKR
notes: described as human IgG4; also called 5B7-wt

Target: T1, Peptide no. 40 (Figure 8A)
Assay: Ala-scan peptide array of hIL20 74-96 on cellulose; fluorescein-labelled antibody; fluorescence as OD

Binder	binding
B1	binds
B2	binds
